Changes are numbered by the printed parent chain. In names and notes the source's numbering stands. No constants are given. Whether binding was seen depends on the method and setting.

Data on 4 molecules can be found in PMC5059743, “Crystal structures of the human elongation factor eEFSec suggest a non-canonical mechanism for selenocysteine incorporation” (Nature Communications, 2016).

The target of assay [1] is human eEFSec (selenocysteine-specific translation elongation factor), wild type (human) (UniProt P57772). The experiment in a line: crystal structure; asymmetric unit of eEFSec:GDPCP and eEFSec:GDPNP (head-to-head dimer) and of eEFSec:GDP (head-to-tail dimer); sitting-drop vapor diffusion at +12 °C; both purified.
Assay [2] concerns the target human eEFSec T48A variant (human) (UniProt P57772). The experiment in a line: SEC; variants purified on Ni2+-affinity and size-exclusion columns; stored in 50 mM HEPES pH 7.5, 250 mM NaCl, 0.5 mM TCEP, 5 mM MgCl2; both purified.
The target of assay [3] is human eEFSec D92A variant (human) (UniProt P57772). The description is as above.
In assay [4] the target is human eEFSec H96A variant (human) (UniProt P57772). The description is as above.

B1: human eEFSec (selenocysteine-specific translation elongation factor), wild type (protein, UniProt P57772 1-596)
chain: MAGRRVNVNVGVLGHIDSGKTALARALSTTASTAAFDKQPQSRERGITLDLGFSCFSVPLPARLRSSLPEFQAAPEAEPEPGEPLLQVTLVDCPGHASLIRTIIGGAQIIDLMMLVIDVTKGMQTQSAECLVIGQIACQKLVVVLNKIDLLPEGKRQAAIDKMTKKMQKTLENTKFRGAPIIPVAAKPGGPEAPETEAPQGIPELIELLTSQISIPTRDPSGPFLMSVDHCFSIKGQGTVMTGTILSGSISLGDSVEIPALKVVKKVKSMQMFHMPITSAMQGDRLGICVTQFDPKLLERGLVCAPESLHTVHAALISVEKIPYFRGPLQTKAKFHITVGHETVMGRLMFFSPAPDNFDQEPILDSFNFSQEYLFQEQYLSKDLTPAVTDNDEADKKAGQATEGHCPRQQWALVEFEKPVTCPRLCLVIGSRLDADIHTNTCRLAFHGILLHGLEDRNYADSFLPRLKVYKLKHKHGLVERAMDDYSVIGRSLFKKETNIQLFVGLKVHLSTGELGIIDSAFGQSGKFKIHIPGGLSPESKKILTPALKKRARAGRGEATRQEESAERSEPSQHVVLSLTFKRYVFDTHKRMVQSP
In the case of B1, the binding result in assay [1] was “no binding”.

B2: human eEFSec T48A variant (protein, UniProt P57772 1-596)
chain: B1 chain with T48A
Turning to B2, the binding result in assay [2] is “no binding”.

B3: human eEFSec D92A variant (protein, UniProt P57772 1-596)
chain: B1 chain with D92A
Turning to B3, the binding entry in assay [3] is “no binding”.

B4: human eEFSec H96A variant (protein, UniProt P57772 1-596)
chain: B1 chain with H96A
In the case of B4, the binding entry in assay [4] is “no binding”.
